Some results come without the dose or concentration used.
Tested on: human mammary carcinoma MX-1 cells
Assay: XTT/CCK-8 drug combination assay against MX-1 cell growth in vitro
Type: cell-based
Conditions: Table 4A; 72 hrs exposure

SMILES	m (shape of dose-effect curve)
C/C(=C\c1csc(C)n1)[C@@H]1C/C=C(/C(F)(F)F)C/C=C/[C@H](C)[C@H](O)[C@@H](C)C(=O)C(C)(C)[C@@H](O)CC(=O)O1 [Fludelone, reference compound]	0.619
C=C[C@@H](O)C#CC#CC[C@@H](O)[C@H](O)CCCCCCC [panaxytriol]	2.600

Reference: patent US20110124690A1, “COMPOSITIONS AND METHODS FOR TREATING CANCER OR A NEUROTROPHIC DISORDER” (priority 2007, published 2011)
